# Laboratory results taken from the supplement of paper PMC12823440, “Inhibitors supercharge kinase turnover through native proteolytic circuits” (Nature, 2025).
# The chains behind the UniProt entries cited, without tags or fusion partners. Where a name states a change or a piece, a line headed by the entry shows the natural chain unless it says otherwise.
# UniProt P07949, whole entry, looked up: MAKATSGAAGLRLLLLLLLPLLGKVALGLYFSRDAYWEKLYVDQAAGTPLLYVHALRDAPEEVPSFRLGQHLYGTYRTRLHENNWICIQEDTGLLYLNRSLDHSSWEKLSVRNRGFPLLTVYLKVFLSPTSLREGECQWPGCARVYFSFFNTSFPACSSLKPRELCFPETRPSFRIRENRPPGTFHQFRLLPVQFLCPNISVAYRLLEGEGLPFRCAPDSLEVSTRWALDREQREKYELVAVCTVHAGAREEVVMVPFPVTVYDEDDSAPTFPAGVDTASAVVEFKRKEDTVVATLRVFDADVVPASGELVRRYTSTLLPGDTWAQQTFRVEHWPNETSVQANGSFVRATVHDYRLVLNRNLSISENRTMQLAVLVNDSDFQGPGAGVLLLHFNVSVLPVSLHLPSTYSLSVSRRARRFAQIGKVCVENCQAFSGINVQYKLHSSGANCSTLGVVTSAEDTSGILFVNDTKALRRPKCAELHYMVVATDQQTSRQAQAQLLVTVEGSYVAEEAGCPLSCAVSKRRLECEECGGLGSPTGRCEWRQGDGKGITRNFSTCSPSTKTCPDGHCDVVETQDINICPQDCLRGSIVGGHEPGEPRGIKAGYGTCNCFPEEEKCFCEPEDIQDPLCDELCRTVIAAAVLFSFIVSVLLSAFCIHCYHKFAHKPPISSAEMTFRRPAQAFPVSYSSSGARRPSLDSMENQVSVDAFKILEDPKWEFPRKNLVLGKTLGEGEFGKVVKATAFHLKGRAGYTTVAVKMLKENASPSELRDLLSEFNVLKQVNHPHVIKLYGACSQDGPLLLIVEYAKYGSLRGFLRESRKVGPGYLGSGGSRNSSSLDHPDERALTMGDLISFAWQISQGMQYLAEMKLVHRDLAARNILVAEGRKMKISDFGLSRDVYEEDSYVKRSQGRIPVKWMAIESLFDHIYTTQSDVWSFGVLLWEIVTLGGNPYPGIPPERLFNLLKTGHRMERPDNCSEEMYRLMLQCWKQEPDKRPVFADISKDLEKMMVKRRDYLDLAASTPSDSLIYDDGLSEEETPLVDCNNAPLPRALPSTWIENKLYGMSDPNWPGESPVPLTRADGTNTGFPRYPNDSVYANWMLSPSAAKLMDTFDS
# UniProt P07949, whole entry M918T, looked up: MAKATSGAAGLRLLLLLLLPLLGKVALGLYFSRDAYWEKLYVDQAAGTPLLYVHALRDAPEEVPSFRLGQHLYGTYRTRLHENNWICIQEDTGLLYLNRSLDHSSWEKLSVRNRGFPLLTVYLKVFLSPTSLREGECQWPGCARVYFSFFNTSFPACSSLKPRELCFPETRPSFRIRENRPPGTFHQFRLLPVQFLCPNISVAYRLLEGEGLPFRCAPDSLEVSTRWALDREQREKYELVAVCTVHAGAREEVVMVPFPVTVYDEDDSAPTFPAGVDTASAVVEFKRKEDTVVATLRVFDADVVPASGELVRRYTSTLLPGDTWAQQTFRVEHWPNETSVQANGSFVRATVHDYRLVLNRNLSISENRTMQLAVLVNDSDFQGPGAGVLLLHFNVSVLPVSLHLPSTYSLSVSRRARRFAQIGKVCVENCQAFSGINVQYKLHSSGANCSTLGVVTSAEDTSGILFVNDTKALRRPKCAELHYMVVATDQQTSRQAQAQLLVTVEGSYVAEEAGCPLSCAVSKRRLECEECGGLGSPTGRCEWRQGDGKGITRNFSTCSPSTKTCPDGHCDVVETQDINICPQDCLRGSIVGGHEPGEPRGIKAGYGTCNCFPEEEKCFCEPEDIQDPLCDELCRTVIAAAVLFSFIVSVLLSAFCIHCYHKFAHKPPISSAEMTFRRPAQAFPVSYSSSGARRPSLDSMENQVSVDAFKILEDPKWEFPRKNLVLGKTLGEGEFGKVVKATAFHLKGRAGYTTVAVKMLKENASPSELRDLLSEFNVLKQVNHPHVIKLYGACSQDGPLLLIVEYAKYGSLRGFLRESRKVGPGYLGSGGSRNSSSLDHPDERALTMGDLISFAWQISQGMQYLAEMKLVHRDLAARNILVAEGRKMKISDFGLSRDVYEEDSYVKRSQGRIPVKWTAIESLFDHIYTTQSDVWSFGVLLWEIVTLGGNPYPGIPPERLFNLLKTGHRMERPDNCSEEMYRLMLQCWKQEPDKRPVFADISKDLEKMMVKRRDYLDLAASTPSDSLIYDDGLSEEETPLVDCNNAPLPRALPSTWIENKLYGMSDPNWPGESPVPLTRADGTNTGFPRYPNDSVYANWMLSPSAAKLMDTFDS
# UniProt Q9BRS2: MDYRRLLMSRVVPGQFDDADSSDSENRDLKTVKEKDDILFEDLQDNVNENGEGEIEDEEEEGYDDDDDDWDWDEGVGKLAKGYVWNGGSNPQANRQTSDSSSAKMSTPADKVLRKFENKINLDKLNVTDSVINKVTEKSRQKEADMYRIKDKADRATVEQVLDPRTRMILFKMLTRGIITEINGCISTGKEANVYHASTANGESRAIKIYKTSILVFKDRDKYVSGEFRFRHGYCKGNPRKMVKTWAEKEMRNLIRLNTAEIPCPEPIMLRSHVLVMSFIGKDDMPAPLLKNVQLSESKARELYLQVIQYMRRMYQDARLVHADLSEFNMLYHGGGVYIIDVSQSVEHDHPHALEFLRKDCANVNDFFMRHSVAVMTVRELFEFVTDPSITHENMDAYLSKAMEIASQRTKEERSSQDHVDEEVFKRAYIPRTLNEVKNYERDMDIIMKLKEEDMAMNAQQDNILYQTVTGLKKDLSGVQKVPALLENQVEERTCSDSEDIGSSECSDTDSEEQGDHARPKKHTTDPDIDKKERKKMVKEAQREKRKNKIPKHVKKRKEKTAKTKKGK
# UniProt Q15418, whole entry: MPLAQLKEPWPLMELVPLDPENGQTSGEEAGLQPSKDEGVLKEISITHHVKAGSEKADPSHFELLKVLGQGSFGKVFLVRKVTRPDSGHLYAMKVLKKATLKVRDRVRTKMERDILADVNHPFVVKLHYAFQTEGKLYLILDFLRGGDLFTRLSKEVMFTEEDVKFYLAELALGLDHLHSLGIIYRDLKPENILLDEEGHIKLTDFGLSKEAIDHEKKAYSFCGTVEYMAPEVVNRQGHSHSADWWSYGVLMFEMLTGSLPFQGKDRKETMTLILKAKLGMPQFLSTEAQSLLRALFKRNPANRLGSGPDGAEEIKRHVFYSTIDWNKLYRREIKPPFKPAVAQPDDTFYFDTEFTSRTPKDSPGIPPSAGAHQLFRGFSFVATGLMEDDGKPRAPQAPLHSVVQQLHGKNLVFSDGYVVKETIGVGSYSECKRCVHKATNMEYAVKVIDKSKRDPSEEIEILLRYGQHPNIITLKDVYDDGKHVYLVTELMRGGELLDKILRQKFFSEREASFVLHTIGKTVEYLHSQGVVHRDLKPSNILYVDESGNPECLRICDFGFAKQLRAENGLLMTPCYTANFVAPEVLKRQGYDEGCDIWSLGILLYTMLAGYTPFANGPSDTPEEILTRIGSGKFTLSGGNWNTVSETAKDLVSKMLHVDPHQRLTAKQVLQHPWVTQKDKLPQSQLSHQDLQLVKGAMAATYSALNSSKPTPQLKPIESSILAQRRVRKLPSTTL
# UniProt Q9NYA1, whole entry: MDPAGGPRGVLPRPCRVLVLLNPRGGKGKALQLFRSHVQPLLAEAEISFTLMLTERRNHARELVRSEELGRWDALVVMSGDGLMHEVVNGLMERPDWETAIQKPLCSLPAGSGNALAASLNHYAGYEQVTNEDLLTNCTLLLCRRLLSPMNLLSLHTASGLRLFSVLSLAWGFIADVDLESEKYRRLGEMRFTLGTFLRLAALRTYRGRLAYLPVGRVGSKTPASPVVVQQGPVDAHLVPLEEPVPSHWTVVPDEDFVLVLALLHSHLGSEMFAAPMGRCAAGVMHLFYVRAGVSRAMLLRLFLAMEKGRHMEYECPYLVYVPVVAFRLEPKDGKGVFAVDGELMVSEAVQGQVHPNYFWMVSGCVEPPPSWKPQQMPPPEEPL
# UniProt Q9Y6E0: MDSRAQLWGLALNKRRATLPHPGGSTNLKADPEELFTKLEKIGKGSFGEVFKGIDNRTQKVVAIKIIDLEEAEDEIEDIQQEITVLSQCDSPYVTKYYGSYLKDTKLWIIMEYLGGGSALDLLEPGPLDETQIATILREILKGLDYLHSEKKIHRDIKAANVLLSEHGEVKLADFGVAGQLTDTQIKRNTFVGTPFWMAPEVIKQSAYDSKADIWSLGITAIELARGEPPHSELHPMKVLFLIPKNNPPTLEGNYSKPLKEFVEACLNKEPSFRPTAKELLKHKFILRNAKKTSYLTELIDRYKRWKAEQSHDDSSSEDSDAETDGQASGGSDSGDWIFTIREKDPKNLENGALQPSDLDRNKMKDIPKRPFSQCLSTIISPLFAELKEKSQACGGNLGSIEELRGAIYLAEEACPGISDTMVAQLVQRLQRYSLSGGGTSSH
# UniProt P42680: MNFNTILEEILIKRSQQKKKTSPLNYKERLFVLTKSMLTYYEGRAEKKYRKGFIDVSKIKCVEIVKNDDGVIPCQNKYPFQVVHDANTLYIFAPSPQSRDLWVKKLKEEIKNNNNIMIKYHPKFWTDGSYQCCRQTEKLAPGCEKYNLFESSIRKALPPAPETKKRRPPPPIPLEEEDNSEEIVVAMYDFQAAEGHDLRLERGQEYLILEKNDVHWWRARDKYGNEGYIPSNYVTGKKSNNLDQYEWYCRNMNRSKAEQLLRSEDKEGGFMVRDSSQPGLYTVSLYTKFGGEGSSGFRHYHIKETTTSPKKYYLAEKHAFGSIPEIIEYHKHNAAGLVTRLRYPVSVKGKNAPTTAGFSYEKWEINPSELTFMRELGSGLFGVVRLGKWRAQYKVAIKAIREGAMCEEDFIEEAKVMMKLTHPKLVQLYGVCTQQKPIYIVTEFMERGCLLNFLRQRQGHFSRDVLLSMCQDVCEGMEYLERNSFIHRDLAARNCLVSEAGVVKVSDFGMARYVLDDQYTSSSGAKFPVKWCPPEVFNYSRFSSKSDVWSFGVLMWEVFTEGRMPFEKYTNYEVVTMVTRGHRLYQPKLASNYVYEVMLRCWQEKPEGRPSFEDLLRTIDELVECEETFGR
# UniProt P29597: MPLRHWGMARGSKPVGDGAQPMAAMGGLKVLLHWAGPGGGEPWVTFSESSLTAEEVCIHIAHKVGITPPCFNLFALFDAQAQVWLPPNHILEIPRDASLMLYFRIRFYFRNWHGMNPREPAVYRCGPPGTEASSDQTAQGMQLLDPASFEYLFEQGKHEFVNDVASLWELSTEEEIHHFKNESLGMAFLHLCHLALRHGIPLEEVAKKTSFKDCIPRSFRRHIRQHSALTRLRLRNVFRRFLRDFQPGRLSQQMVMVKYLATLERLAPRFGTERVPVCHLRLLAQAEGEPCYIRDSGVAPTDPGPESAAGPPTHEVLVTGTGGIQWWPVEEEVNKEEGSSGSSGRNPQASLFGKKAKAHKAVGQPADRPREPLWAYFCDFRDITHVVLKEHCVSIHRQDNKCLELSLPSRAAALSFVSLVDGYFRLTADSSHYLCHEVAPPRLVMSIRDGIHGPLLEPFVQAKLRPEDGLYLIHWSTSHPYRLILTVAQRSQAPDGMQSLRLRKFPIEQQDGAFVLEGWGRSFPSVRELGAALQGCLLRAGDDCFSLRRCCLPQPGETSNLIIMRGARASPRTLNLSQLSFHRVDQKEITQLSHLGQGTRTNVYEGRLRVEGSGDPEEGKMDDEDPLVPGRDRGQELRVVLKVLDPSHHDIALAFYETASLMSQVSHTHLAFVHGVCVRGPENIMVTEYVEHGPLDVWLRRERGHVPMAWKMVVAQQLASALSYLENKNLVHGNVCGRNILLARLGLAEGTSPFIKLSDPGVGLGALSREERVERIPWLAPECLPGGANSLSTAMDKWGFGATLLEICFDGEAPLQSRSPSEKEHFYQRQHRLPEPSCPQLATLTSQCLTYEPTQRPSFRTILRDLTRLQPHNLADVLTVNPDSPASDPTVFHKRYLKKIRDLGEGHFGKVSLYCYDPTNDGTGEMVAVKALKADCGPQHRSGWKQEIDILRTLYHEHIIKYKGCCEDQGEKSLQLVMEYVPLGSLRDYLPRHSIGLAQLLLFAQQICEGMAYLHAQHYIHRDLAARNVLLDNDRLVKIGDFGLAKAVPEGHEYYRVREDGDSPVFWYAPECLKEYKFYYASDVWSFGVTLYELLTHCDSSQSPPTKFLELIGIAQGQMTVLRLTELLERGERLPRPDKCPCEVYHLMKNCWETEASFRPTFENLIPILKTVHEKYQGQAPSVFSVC
# Some of the results follow. Hit calls seldom repeat between salt and free forms of one compound.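 Kinases were expressed as nanoluciferase fusions in K562 cells and luminescence was read every 4 h between 2 and 18 h as percent of control, DMSO set to 100% and a positive control to 0%. A time point counts as decreased when the signal drops significantly (2 sigma). The hit call is the authors' own, does not follow from the count of time points alone, and its rule is not shown.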
# How the values were obtained:
# Conditions in all cases: K562; 2-18 h
# [1] = target: RET (UniProt P07949); experiment: kinase-Nluc reporter destabilization hit call (1 = scored as downregulated) (binary); higher = compound decreases kinase abundance
# [2] = target: RET_M918T (clone: RET_mut) (UniProt P07949); experiment: as above
# [3] = target: RIOK1 (UniProt Q9BRS2); experiment: as above
# [4] = target: RIPK1 (UniProt Q13546); experiment: as above
# [5] = target: RIPK2 (UniProt O43353); experiment: as above
# [6] = target: ROR2 (UniProt Q01974); experiment: as above
# [7] = target: RPS6KA1 (UniProt Q15418); experiment: as above
# [8] = target: SPHK1 (UniProt Q9NYA1); experiment: as above
# [9] = target: SRC (UniProt P12931); experiment: as above
# [10] = target: STK24 (UniProt Q9Y6E0); experiment: as above
# [11] = target: STK38 (UniProt Q15208); experiment: as above
# [12] = target: SYK (UniProt P43405); experiment: as above
# [13] = target: TEC (UniProt P42680); experiment: as above
# [14] = target: TYK2 (UniProt P29597); experiment: as above
# [15] = target: ULK3 (UniProt Q6PHR2); experiment: as above
# [16] = target: YES1 (UniProt P07947); experiment: as above
# [17] = target: ZAK (UniProt Q9NYL2); experiment: as above
# [18] = target: ZAP70 (UniProt P43403); experiment: as above
# [19] = target: ABL1 (UniProt P00519); experiment: number of time points (of 5) at which kinase-Nluc abundance scored as decreased, DMSO-normalised (count); higher = more persistent destabilization
# [20] = target: AKT1 (UniProt P31749); experiment: as above
Structure (SMILES),kinase-Nluc reporter destabilization hit call [1],kinase-Nluc reporter destabilization hit call [2],kinase-Nluc reporter destabilization hit call [3],kinase-Nluc reporter destabilization hit call [4],kinase-Nluc reporter destabilization hit call [5],kinase-Nluc reporter destabilization hit call [6],kinase-Nluc reporter destabilization hit call [7],kinase-Nluc reporter destabilization hit call [8],kinase-Nluc reporter destabilization hit call [9],kinase-Nluc reporter destabilization hit call [10],kinase-Nluc reporter destabilization hit call [11],kinase-Nluc reporter destabilization hit call [12],kinase-Nluc reporter destabilization hit call [13],kinase-Nluc reporter destabilization hit call [14],kinase-Nluc reporter destabilization hit call [15],kinase-Nluc reporter destabilization hit call [16],kinase-Nluc reporter destabilization hit call [17],kinase-Nluc reporter destabilization hit call [18],number of time points [19],number of time points [20]
COc1ccc(Cl)cc1N(CC(=O)Nc1ccc2c(c1)OCO2)S(=O)(=O)c1ccccc1 (2.5 µM),inactive: 0,inactive: 0,inactive: 0,inactive: 0,inactive: 0,inactive: 0,inactive: 0,inactive: 0,inactive: 0,inactive: 0,inactive: 0,inactive: 0,inactive: 0,inactive: 0,inactive: 0,inactive: 0,inactive: 0,inactive: 0,0,0
Nc1ccc(-c2nc3ccc(-c4nc5ccc(N)cc5[nH]4)cc3[nH]2)cc1 (10 µM),inactive: 0,inactive: 0,inactive: 0,inactive: 0,inactive: 0,inactive: 0,inactive: 0,inactive: 0,inactive: 0,inactive: 0,inactive: 0,inactive: 0,inactive: 0,inactive: 0,inactive: 0,inactive: 0,inactive: 0,inactive: 0,0,0
CCC[C@H](C)Oc1nc(N)c2[nH]c(=O)n(CCCCCN3CCCCC3)c2n1 (10 µM),inactive: 0,inactive: 0,inactive: 0,inactive: 0,inactive: 0,inactive: 0,inactive: 0,inactive: 0,inactive: 0,inactive: 0,inactive: 0,inactive: 0,inactive: 0,inactive: 0,inactive: 0,inactive: 0,inactive: 0,inactive: 0,0,0
Cc1cccc(CC(=O)N2CCc3c2ccc(-c2cn(C)c4ncnc(N)c24)c3F)n1 (10 µM),inactive: 0,inactive: 0,inactive: 0,inactive: 0,inactive: 0,inactive: 0,inactive: 0,active: 1,inactive: 0,inactive: 0,inactive: 0,inactive: 0,inactive: 0,inactive: 0,inactive: 0,inactive: 0,inactive: 0,inactive: 0,0,0
Cc1ccc(C2CC(=O)NC(SCC(=O)Nc3nccs3)=C2C#N)cc1 (stereo not given) [Necrostatin-34] (10 µM),inactive: 0,inactive: 0,inactive: 0,inactive: 0,inactive: 0,inactive: 0,inactive: 0,inactive: 0,inactive: 0,inactive: 0,inactive: 0,inactive: 0,inactive: 0,inactive: 0,inactive: 0,inactive: 0,inactive: 0,inactive: 0,0,0
COc1c(Nc2ncc(Cl)c(N[C@H]3[C@@H](C(N)=O)[C@@H]4C=C[C@H]3C4)n2)ccc2c1CC[C@@H](N1CCOCC1)CC2 (10 µM),inactive: 0,inactive: 0,inactive: 0,inactive: 0,inactive: 0,inactive: 0,inactive: 0,inactive: 0,inactive: 0,inactive: 0,inactive: 0,inactive: 0,inactive: 0,inactive: 0,inactive: 0,inactive: 0,inactive: 0,inactive: 0,0,0
C[C@H](Nc1cc2c(-c3ccc4c(c3)OCO4)noc2cn1)c1ccccc1 (10 µM),inactive: 0,inactive: 0,inactive: 0,inactive: 0,inactive: 0,inactive: 0,inactive: 0,inactive: 0,inactive: 0,inactive: 0,inactive: 0,inactive: 0,inactive: 0,inactive: 0,inactive: 0,inactive: 0,inactive: 0,inactive: 0,0,0
CC(C)(Oc1ccc(Cl)cc1)C(=O)Nc1ccc(OCc2ccc(C#N)cc2)cc1 [AMPK activator 4] (10 µM),inactive: 0,inactive: 0,inactive: 0,inactive: 0,inactive: 0,inactive: 0,inactive: 0,inactive: 0,inactive: 0,inactive: 0,inactive: 0,inactive: 0,inactive: 0,inactive: 0,inactive: 0,inactive: 0,inactive: 0,inactive: 0,0,0
NCCNS(=O)(=O)c1ccc(Cl)c2ccncc12 [CKI-7 (free base)] (10 µM),inactive: 0,inactive: 0,inactive: 0,inactive: 0,inactive: 0,inactive: 0,inactive: 0,inactive: 0,inactive: 0,inactive: 0,inactive: 0,inactive: 0,inactive: 0,inactive: 0,inactive: 0,inactive: 0,inactive: 0,inactive: 0,0,0
